To fix the notation:
B1: TTHERM_00442520 (protein, UniProt I7MD50 1-1039)
chain: MSNQKGEIPESILNDYLQMGLNEQLLRLAYRNCKGQVNSLLDEYQHLLASNNQVLNEQQNKISNLTDNMDEEVQLNQAILASQQEAKEKNISFEPLNPEQRIRKEGIPVGLKNLGNTCYINPLLQSYFYNAEFCYAIINFQKPSEEEIQKRLKNDSTQSNSSDEQFQKDSTEQNILLKRVKASVELVCALQELYILLVGSDKKYIDPSKVIKNIVDEQGNQIQIGDQQDIGEFNLTFLARIDEGLSYSKKSFNKGAMEEELVHSLMRASSTSISQGEQELQRSISISMSDTSVVNSNFFGKASIHMSYPLGEETFEKQEEELFNIIFLDIKHKELYYALDEYVVNHIDEFKNDKGDIVQAQKYNWIKRAPKTLFFQLQRVVFDKEKGCLKKLNDSFNFENQIYLERFTEERSKDYLRIREQVNKLIYEKQQYELALNNINQYSNHLSQNQTKSNAKPEENKDQQSNLGLLSALESTILFLQTNSKKVDVNPLVDPSYFGDNSKENLQIVKALEQYTSKVKQRIQELQEKIRQLENKINESYNGFKKEKYLLQSVIIHDGQADSGHYYAFIKDHSTKKWWRYNDIQVSEETEENVFKEALGGWGKASAYSLIYVKEEVAIPPQAKEKPIRLHLASNTVNQLSASQVRTVDYYTSIIPEDLLNNLCVENLKFQEEIEEYKASNTSRQIIDMYTRRFELNNECARKGDEARKKVKGSPPPFIQFCVYLKLHPKNDKGQFDDLIKWLILDSCVREHYKNAQHLNNLSDKKLEDKLKQQIASLGNFKAPKSIKISAENSDTIEQINSEFIKQLNNAEATIFAMQAALKFDWISSLAAFDYLIDLNFFSDQNKQAQFKDDYFFKISRDTKLIILIAMLHYYELKVPFCTKEDSQEILNGIQVFIGFYKKQNKPDQKTQVTFSLWIDDISQLASDQNLQQEIKKINSEYMSASNNNRYIQGEEPLKNIPTELKERLEKLTSEGDMYYWNANKKEDYLFNELISNFDKIKAHFDTYIKFIQKIRASQTPLFKQDRLFSTNVQSYNIK
B2: hypothetical protein TTHERM_00220810 (protein, UniProt I7LVZ7 1-1407)
chain: MSLFSELPLDAGTDEQITQIAVSNVSINPSLAIITPHKILLFNECGEKHDYELSRNIRCTYVQWHPSQPIIALGWETGAITLWSEETKVAKEEPNGHKSEICLIQFNPSGSRMVSADIDGNVTVWRGINIVSQYKKEQSITHAIFCELNIDSKLKSGNLFFFGGKSGVVCLADDANHCSDVCKVGGSIKSLLFYEKENSVIIITSTLLLVMFKISTSVKTGPSKRVKLSISGDPQKLQSIWIGSCLLATCSHENMLRMWHLDQDDNYVLTLHQLAQQTQTQQGAATVIQSTNTNDQITSIQYEKRGKVLVAGTREGRIIFWKNLSIGSESPLDVDEWKMLPYVSVRQGVNSIAVGQNNGLIAVQYGNQISLVQETVINGKMTDQVRLLQSSANTIKIYINNDISNQVLHFQSKGNIKGLDCNDQFMLLWTSKTIEIHEIIINPKESQTKLVASIQEKCLRSVIHKENIILVNDMELNVLNFKGIQKQNLKFSESEGKILNVNVLNNHLIMWTSNNYIRLFDISRREVKQIGVTRRFENSQGQLGQIRYCAVNSDGSKIVITADQRGKSGPQADNKFYIYDVQTDNFLLYEMPAKCIPLQPYCDRKDRKFFGISCIINKNIQQEKNADENNDENEDNKSDKSRNEDDDEKDKSNLEFYTFFVTSENGIRKQDQYQLESSIEAVFAIDIPKLYFIKRNKKTNSSGQNYKIVEKYLNDFVGLEKIDNQIKEAIMNFSFYLTMDNLDEAYKSVKQIQNPSIWEKMASMCVKTKRIDVAEICLGNMRFARGSKAIREQKKEPELDAQLAMVAIQLNMKDEAVKLYEQSKRYDLYNKMLQAEGNWEKAIQISENHDRINLKNTYYRTAQMYEVSNNYEQAILYYEKSGTHVKEVPRMLLEAGQTEQLERYIIDKNEKPLFKWWAQYLESNYRIELAVKFYRQSEDYDQMVRLFLTKNDVQTASSICSETNNSAACYILAKYLEMNGQIPEAIQYYWKSQHYTQAVRLAREKGMDNEVMSISLQGPNQVKLQSAAYFEEKGFKQKAVELYKKGGNLIKAYNLAQEEKLYDEAKQIARQIEQEEDQRNKKRDPNDLAGIIDDFIEKGQPERAVPLMIKAKQFERAIETCIRFNIPITQDLVDKIIPTEPAKNAAEENKRKELMKLIADTSIKQGDYRLSSKLYTKLGNQVEAMKCLINLGAIDEVVNYATMARMPQLYILAGNFLQTTDWHKNPQLMKHIITFYNKAKAYDNLAGFFDACSSVEIDEYRDYEKAAAALNEALKHAKKSTSESRDFRIEQLETKLNLVQKFVQARALFSSDPQQMKQICEDLLAQPGIDQSVRSGDIYAQIIEYYYQVKNFSQAFDYIKKMQQKRIILAPYLDQEMLQQILESQGVSLNSKNKNNDDEFIEEDVPE
B3: hypothetical protein TTHERM_00494750 (protein, UniProt I7M9X8 1-628)
chain: MLKYFNLFNKNITSVQLLNQKFAFTFCSTQQPQQEETQNQQKQQQQQRKGQNKNQGKQHGGSQKNSIQQKDLDQFLNTLLQDADARKISASRYDIDLYRRESIKNRFNIMSFALAKCYIQHMKFFNEFFSEKDFENLIIKYEVKNLDQFVFNFSLATALTLNVNNKQIQKKYKYLYSQYLKFYQSIDQNESTSSSTAIQKLMFVLNIINFGNNQKQYLDYVKEFIPTYFQQVLESVQFYSKDSYDINDILFASKYYNFTQTFNKQDAFDKYCKVLSQVKLDQNQTISKYDALNLIQAASHATFQQKNFIIQNQQVLDEIVKMCLDALEGDLQKELNLEFVYFYIMSSETFIKNKEENMKYCKLLEKNLEREHSNQIKTNILYSLGKSSIVTPKIKEYIQSSINNIQTEKIHQFDKYVSCLLLCAANLGIITKDNISKYLIESIFSSDIKFRYKYIDYLAIVFYRIQYFEKDVWEQIFQRIDHNQESFYLNLIRCSYKAYQNLMSQETLALFEQNLGKQSKSFTLKENPIQIQEEIQLKNYLEQKNISHKQSQFVDGFYTNFILNEKDVVFILKYNSYLVEENSTEVKFNLSTQSKIDYFQKLGYNLIILNSSEGDVCQLFEQAYKPSN
B4: TTHERM_01082940 (protein, UniProt Q22BX4 1-462)
chain: MSQQQQYKGKCNCPFCSRFNKMQGEINRDEIEESKENQSNSYSQNYQQYEKLKSSQVQQDENDQNQYVQNNQQYEIQQNQNDQNNQNNPLYDQPFKFEVNHNIDNDLQMIKDWIGQFSNLKDVQQQNEASHDFMQNFVTQYPTSDLSLPDISFHFKPDGSQAILFSIFCQPEILQKCVAKRNDIAELFYDSIGFTILLVIKPKIDYKNFDQKHQEFNSNEIPLEVFISNKFESQQKILYKIGLQAKRQIKVFPQIQNLRLRRDLNELFECLDDKFEFNYSNCSDHCFAYYTQSDNLNQLEGLIIGPQDTPYEGIPYTVTIQIPDQYPIEPPKVTFNQQILHPNISEQGEICLNILQDKWSTVLTIQKVLVSIVSLLYEKNLDDVYNHYAKTLYQEDPEEYKTLIKKQSILQDSQKLKIDFKQLAKVPINEQNGYDEYENNDGYNTYEGYDDDDYQYMDIEDE
B5: hypothetical protein TTHERM_00616320 (protein, UniProt I7MAF0 1-127)
chain: MLARTLKNYMRVQQNLRFSRANIEKSPAPPTIGQVELEPFKFNHERDQLIYGYTMEELYGKKFGLKHSATVLREIKKDTIMMILFIIGGFTYCYHMRETRFQLDDDFNEYVNTNKQTFRPIPDHVKL
B6: hypothetical protein TTHERM_00295430 (protein, UniProt I7MIE0 1-212)
chain: MGGDHHHEDSHHKSNVDQHELKAEMIKELSHYYDHHDLSLFGKVQHFVEHLLEEKHHAKINTSNFDQKKLENFSESKQISRTVFALKKIKTFNHDFFTSEEEMILEPLPLGILTYGLKYAFAGVDAALLTYFWRNWNFNVRTIGLLGGLVGIQMATLHIPNLVNEVVIQTPRRRALAKKYISAYGPQFFHDIVNPKYDIEHLRHLQNKLNPY
B7: TTHERM_00402120 (protein, UniProt I7MIM2 1-410)
chain: MTYQLLAPAGNFRANMLLTIAELVGVKLELVHTEYAATKTPEFKQKNPLGKVPVLITPEGPVYESNAIARHLARTAGKLYGANQHEAALVDQYLDMAVTELLPSLTTTLYAIFGFKPADKEVLKAAKQETFSVLRILNERLTHHKYLAGENLTIADIQLATFLNLAFRVTISGEQKKPIAKVVEYFVRVAQLPEFTKYHGRPHFATSEFQTVAAPAAEAKDNKKKEAAKAKEAPKPKEAPKKKEEKVEEEEKEEQPASGWNLYDYKTLYVNAKNKEEAIQNLVENFDAKTMCIYHLHYQKYTGDGQVLYLFNNMKNNFLQRCDPARKVAFGTYSIYGEEPNLEISGVWLFMGATIPPQMNENPSFEYHDLKQLDITKAEDLQILRNYWTNTEEDTSVVDGLRLRSFGSFK
B8: hypothetical protein TTHERM_00586710 (protein, UniProt I7M8T5 1-694)
chain: MSNDNKSNASSRLSALNSQMPELSPSQLLHSYRNRSKVDRQGLYETFYGPKWEFRNKVYDIICNNSEKFSAPYIDEHDRERTRYAAFKELHFIQKSLNMGYAEYQKDPHAFSMTSNAVYSWSPAICVKYGVHFSLYGKTLMNLGTEKHLPYIYRMMKLEDIGSFGLTEMGHGSNVRGIKTTAIYDPQSNEFIINTPEEVDMKFWIGATAQLANMTVCWAQLYVEGKCHGVHAFLVPIRNKDTHRVMPGITVGDCGPKNGLDGIDNGFMIFHNVRIPYDNLLDKFSQIENGKFKTWIESDDKRFGFQMASLSGGRVQVACNSNQNSIIAVAIAGRYSTIRKQFGAPGKPEQPIIEYPLTQYRIIPNVATAIVLQLSTITLSILWDENQKHLLDVKNTLINELHAISSAIKAISTWTAQRIITESRQILGGHGFSTFNRFGQLYNDNDVNVTWEGDNNVLLQQTGKFLLDSAKKLMKGKKLPFKCTSYISLDPAEGQQSELNSNEDFFNQGKLLKALQWRVNLLLQKTGLKMQEYMQVSKNGWDAFNNAQPFYSVELAKAFGDTWSAEQAIETISKVQNPENKRVLSDFVTLYLLETINKDIGNFRFGGYINCQQYEQIRSSILKLCNKLKDEFIAVLDALAPPDFILQAPFGASDGDIYNRYIGLIYSAKSTFKRPDWWKEVHKAHKKYHFEIDA
B9: hypothetical protein TTHERM_00105100 (protein, UniProt Q234I6 1-266)
chain: MLLYNIDQDEGNQQQDTENRQNNNQDYSYGNEQRRQVQQMELELQNANNIDTQSENNQQKAQQNQKSMVEEIDEDKIRQEKFDQKEKEFRDAQLREKKMCMKVHFKNKQIIEIKKLVEQNTLTLQYYEQKKYLQPTDVNYSRSLLEEYCSLRDKINKCNETLRQLKIKRWDSETFFQNLKDLQRQEESLSSYIKISEYTKEQKQQEIKRIEEYKEQIKKINDEIEKLKEKHIQNSDNYSTIKLQLKEQNQKNESLRQQIESLKRNN
B10: Rpl19 (protein, UniProt P0DJ60 1-185)
chain: MVSLRLQKRLAASVLKCGQKRLWLDPNESSEISMANSRASIRKLIKDGLVMKRSTVIHSRSRARAFLEAKRKGRHTGSGKRKGTRNARMPTKVLWMRRQRVLRRLLRKYRAAKKIDKHQYHEFYLGSKGNLYKNKTVLIEAIHVSKADKIKSDKLTSQQEARRAKNTASRAKRNEKAQIVAKVDV

Results are given in words; binding and its absence hold for the method and conditions named. In cells and extracts the contact can be indirect. These calls come from enrichment with a bait or labelling near it, and not all partners need be listed.

The target of the first assay is Mlh1-FZZ (Tetrahymena thermophila). The experiment in a line: affinity purification with mass spectrometry; FZZ-tagged bait expressed from its endogenous MAC locus, captured on anti-FLAG M2-agarose at 4 °C from Benzonase-treated whole cell extracts (10 mM Tris-HCl pH 7.5, 1 mM MgCl2, 300 mM NaCl, 0.2% NP40); cells in vegetative growth, starved 24 h, or conjugating (6 h post mixing); two biological replicates; SAINTexpress against untagged cells, FDR ≤ 1%.
Regarding B1, the binding result is on record as “binds”.
In the case of B2, the binding result was “binds”.
As to B3, the binding entry was “binds”.
As for B4, the binding entry is on record as “binds”.
As for B5, the binding result is “binds”.
On the same count and under the same terms, in the case of B6 it was “binds”; in that of B7, “binds”; in that of B8, “binds”.

Another assay has as its target Hho1-FZZ (Tetrahymena thermophila). Described as above.
On to B9, for which the binding result is “binds”.
Turning to B10, the binding result is reported as “binds”.

The values above are taken from publication PMC6957481.
